The structures appear in SMILES notation.

The text below walks through data of patent US7994311B2, “Fluorescent chemosensors for metals based on dipyrrins” (priority 2006, dated 2011).

A short description of this data set: Fluorescence quantum yield of dipyrrins, free and with Zn^2+. The following applies: for increase of fluorescence quantum yield upon binding Zn^2+: Zn^2+ complex over free ligand; for fluorescence quantum yield (ΦF): excitation 432 nm, reference perylene in toluene. An excerpt:
The conjugated (2) comprises a fluorophore with the […] moiety behaving as an ionphore. Benzaldehyde was used to form (2) because the properties shown by this type of sensing molecule with an benzene ring are representative of the general behavior of the family of compounds. In spite of the low fluorescence quantum yields of benzene, substituting benzene (ΦF=0.05±0.02) with a more intrinsically luminescent unit can make a great improvement in ΦF. An examples of another aromatic entity used instead of benzene is anthracene (ΦF0.27±0.03). When a […] attached to the benzene ring, the fluorescence quantum yield (ΦF) of (2) was very low and was determined to be 0.0011 due to the photo-induced electron transfer (PET), which is the intra-molecular quenching mechanism of an enamine group and an imine group in conjugate. When Zn^2+ bound with a […] moiety, PET was hindered and fluorescence emission intensity was recovered. […] Zn^2+, the fluorescence quantum yield was determined to be 0.07. […] (2), (3) and (4). The excitation wavelengths were 432, 475, 450 nm. The emission wavelengths were 496, 612, 497 and 599 nm for (2), (3) and (4). The ratio of fluorescence quantum yield [fluorescence quantum yield of metal ion/(2), (3) or (4) complex over fluorescence quantum yield of free ligand (10 μM)] was measured in acetonitrile.

As for `C1=CC(=C(c2ccc[nH]2)c2ccc3ccc4cccc5ccc2c3c45)N=C1` [(4), 1-pyrenyldipyrrin], the “increase of fluorescence quantum yield upon binding Zn^2+” value turned out to be 68.2 fold.

Turning to `C1=CC(=C(c2ccccc2)c2ccc[nH]2)N=C1` [Compound (2), 5-phenyl-4,6-dipyrrin], the “increase of fluorescence quantum yield upon binding Zn^2+” value is reported as 65.7 fold. The “fluorescence quantum yield (ΦF)” value (after addition of 50 equiv. Zn^2+) is reported as 0.07. For the setting “free ligand”, the “fluorescence quantum yield (ΦF)” value came out at 0.0011.
